These are yes or no findings as the source states them, for the method shown. Binding seen in cells or lysates may run through a third protein. Some binding calls cover weakened binding; strength is not graded here.

Protein sequences, listed by entry. Tags and fused reporters are not part of them.
UniProt Q15796: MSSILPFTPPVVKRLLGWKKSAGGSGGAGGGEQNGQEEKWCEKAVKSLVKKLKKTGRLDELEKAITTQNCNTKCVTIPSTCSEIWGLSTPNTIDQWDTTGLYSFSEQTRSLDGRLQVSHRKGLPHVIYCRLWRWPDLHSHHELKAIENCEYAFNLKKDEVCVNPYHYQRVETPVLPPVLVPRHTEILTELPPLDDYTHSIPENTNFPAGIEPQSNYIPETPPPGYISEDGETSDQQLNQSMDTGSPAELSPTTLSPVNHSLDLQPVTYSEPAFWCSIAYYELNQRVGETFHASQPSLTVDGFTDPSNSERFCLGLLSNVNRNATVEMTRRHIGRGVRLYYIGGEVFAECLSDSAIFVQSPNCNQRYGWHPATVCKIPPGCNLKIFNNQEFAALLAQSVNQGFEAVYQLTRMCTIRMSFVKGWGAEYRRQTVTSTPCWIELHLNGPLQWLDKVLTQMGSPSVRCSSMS
UniProt P07101: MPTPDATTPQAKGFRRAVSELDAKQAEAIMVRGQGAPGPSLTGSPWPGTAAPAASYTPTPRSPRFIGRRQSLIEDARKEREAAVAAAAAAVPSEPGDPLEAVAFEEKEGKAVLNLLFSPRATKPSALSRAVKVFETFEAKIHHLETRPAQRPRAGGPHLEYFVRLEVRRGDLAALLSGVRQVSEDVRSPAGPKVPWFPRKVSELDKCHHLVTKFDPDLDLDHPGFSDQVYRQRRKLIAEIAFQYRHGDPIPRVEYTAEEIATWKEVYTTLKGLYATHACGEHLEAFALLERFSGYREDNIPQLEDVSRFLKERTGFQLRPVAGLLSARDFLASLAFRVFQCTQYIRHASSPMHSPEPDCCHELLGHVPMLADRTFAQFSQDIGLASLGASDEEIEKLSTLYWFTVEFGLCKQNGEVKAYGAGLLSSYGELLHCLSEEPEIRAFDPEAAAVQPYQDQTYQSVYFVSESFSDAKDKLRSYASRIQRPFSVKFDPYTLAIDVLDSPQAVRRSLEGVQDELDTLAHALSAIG

In one test the target is GST-Smad2 fusion protein (UniProt Q15796). Briefly: pull-down; GST-Smad2 (or GST) from BL21 enriched on GST beads, incubated with lysate of HEK293T transfected with Flag-TH, 3 h, 4 °C; Western blot; only the target purified.
The next test addresses HA-Smad2 (UniProt Q15796). Kind of test: co-IP; Flag-TH and HA-Smad2 plasmids co-transfected into HEK293T; lysed after 48 h in IP lysis buffer (50 mM Tris-HCl pH 7.4, 150 mM NaCl, 5 mM EDTA, 1% NP-40); Flag-beads or HA-beads, 4 °C, 3 h; Western blot.
Test [1] has as its target endogenous Smad2 (human (endogenous in Huh7)) (UniProt Q15796). Briefly: co-IP; Huh7 cells with exogenously expressed Flag-TH, endogenous Smad2; cells treated with TGFβ1.
Test [2] shares this target. Kind of test: co-IP; endogenous proteins in Huh7 lysate; 2 μg anti-TH or anti-Smad2 antibody, 4 °C, 8 h; Protein A/G beads 2 h; Western blot.

In the case of “Flag-TH (tyrosine hydroxylase) (from UniProt P07101 1-528) (enzyme)”, the binding result with GST-Smad2 fusion protein and in the test with HA-Smad2 was “binds” in each case.
For the substance “Flag-TH overexpressed in Huh7 cells (from UniProt P07101 1-528) (enzyme)”, in test [1], the binding entry was “binds”.
With “endogenous TH (tyrosine hydroxylase) (from UniProt P07101 1-528) (enzyme)”, in test [2], the binding result was “binds”.

Values taken from paper PMC11015545.
